Some of the results follow.
compound: c1cn2cc(-c3ccc4cn[nH]c4c3)nc(Nc3ccc(N4CCOCC4)cc3)c2n1 [entospletinib]; test: log2 fold change, soluble protein after heating vs DMSO (PISA); higher = thermal stabilisation; K562 cells, 10 uM, 30 min; active = over 0.2 and 3.5 SD of the protein, either way, in both replicates (recomputed)
In short: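 Quantification of soluble protein used TMTpro 16plex LC-MS/MS, with channel sums equalised. Samples were the supernatant after 21,000xg for 90 min of pooled aliquots from K562 cells (2×10^6 cells/mL) treated with 10 μM compound for 30 min, heated for 3 min over 48°C-58°C, and extracted in PBS with 0.5% NP-40 at 4°C. Values, from duplicates, describe thermal stability against control samples on a log2 fold-change scale.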

The chains behind the UniProt entries cited, without tags or fusion partners. Where a name states a change or a piece, a line headed by the entry shows the natural chain unless it says otherwise.
UniProt Q9NQS1: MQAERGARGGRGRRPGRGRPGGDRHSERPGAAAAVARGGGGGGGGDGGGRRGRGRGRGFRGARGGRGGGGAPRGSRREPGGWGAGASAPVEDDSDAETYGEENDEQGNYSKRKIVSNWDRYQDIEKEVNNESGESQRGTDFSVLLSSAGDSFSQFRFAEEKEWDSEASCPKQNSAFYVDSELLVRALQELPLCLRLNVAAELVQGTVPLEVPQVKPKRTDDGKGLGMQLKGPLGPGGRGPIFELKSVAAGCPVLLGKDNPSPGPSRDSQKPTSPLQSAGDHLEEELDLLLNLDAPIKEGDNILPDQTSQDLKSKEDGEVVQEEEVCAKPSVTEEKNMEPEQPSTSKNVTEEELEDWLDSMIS
UniProt O95429: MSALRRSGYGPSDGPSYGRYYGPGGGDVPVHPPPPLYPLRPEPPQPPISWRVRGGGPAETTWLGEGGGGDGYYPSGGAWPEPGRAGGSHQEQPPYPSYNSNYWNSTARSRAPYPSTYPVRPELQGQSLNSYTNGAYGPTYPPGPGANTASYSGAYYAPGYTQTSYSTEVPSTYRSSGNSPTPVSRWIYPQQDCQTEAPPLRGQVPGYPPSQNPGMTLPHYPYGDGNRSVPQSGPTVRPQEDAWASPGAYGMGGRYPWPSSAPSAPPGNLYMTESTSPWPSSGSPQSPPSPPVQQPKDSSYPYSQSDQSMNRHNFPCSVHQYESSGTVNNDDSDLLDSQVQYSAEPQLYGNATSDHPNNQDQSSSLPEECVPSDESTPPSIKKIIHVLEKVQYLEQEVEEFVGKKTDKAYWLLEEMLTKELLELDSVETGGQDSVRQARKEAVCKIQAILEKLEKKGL
UniProt Q9NWD9: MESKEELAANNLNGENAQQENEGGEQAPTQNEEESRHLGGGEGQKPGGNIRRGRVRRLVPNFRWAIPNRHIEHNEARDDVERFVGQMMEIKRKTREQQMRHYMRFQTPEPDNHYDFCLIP
UniProt Q8NFC6: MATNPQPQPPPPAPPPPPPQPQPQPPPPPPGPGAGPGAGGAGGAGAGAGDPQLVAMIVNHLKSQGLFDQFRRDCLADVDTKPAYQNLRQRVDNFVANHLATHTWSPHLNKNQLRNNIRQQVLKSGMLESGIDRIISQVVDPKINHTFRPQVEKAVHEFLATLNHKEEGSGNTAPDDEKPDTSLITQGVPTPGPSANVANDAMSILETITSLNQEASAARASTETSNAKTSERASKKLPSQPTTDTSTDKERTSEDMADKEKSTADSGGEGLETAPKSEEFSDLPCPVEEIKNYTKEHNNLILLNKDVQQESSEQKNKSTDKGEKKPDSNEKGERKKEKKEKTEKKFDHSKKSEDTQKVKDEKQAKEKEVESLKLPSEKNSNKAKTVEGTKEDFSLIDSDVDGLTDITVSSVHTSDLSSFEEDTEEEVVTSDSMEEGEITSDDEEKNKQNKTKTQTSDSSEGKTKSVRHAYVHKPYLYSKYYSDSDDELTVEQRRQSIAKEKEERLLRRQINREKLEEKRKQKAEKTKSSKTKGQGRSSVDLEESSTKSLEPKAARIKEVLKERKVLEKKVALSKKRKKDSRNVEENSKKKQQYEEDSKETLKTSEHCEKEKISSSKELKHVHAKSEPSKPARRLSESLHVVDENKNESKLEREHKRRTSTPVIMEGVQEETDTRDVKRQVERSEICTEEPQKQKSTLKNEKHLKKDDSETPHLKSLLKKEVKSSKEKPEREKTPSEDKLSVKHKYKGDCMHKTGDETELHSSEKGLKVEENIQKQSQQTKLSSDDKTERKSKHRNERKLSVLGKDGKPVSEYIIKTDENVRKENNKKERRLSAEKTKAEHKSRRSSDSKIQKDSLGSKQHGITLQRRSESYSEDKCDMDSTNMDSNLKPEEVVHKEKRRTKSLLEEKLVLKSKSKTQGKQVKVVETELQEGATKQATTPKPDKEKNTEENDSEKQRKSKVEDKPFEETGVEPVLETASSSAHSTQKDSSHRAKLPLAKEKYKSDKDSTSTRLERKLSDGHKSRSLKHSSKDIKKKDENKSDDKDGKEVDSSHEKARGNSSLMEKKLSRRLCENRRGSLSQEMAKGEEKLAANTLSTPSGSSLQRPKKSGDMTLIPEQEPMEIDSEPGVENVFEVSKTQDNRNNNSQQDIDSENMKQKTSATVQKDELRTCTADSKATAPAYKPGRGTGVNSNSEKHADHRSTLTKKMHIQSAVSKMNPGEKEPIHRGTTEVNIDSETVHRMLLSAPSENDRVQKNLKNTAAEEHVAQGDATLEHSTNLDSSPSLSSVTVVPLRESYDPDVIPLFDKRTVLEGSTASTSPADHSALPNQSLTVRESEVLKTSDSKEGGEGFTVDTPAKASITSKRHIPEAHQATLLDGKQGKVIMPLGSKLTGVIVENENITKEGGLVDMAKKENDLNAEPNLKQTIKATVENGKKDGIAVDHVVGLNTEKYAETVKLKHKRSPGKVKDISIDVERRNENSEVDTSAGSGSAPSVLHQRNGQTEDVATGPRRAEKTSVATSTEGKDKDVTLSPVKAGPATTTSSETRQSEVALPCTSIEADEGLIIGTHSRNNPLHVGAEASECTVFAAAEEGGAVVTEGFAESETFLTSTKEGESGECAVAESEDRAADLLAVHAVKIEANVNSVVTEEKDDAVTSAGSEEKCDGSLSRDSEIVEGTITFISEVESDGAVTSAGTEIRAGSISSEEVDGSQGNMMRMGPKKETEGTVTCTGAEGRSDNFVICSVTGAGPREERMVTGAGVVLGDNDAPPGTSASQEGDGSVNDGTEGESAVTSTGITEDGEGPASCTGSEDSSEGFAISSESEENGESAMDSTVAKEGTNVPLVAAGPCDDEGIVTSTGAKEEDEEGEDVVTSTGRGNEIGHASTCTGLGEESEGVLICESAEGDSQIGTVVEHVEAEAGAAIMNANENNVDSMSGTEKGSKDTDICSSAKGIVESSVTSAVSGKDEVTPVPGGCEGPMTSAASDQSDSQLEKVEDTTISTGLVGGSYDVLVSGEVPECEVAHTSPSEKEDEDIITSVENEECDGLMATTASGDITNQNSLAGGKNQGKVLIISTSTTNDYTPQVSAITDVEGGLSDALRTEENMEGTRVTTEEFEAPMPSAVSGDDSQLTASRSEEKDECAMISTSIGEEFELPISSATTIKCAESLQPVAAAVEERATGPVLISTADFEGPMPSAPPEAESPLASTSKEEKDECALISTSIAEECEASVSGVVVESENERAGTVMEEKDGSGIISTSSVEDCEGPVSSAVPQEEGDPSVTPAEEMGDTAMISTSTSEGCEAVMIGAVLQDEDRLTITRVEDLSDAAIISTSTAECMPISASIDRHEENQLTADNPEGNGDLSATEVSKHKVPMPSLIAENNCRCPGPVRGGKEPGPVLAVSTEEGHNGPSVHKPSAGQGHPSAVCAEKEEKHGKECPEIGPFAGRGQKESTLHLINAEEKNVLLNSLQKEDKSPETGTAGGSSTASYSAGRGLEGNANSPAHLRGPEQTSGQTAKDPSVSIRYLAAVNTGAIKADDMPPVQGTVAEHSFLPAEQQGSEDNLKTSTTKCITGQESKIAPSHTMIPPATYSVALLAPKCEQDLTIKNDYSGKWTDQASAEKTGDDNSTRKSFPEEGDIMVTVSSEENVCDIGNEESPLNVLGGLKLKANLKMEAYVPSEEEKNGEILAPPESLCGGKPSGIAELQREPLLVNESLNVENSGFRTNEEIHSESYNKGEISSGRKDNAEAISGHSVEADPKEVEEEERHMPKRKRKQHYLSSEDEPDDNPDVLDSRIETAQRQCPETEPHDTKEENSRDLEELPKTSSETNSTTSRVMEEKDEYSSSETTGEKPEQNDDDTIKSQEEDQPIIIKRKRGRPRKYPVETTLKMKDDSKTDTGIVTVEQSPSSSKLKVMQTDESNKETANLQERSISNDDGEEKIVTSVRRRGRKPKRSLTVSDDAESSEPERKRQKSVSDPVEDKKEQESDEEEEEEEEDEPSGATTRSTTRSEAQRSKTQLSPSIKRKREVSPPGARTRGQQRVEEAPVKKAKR
UniProt P21953: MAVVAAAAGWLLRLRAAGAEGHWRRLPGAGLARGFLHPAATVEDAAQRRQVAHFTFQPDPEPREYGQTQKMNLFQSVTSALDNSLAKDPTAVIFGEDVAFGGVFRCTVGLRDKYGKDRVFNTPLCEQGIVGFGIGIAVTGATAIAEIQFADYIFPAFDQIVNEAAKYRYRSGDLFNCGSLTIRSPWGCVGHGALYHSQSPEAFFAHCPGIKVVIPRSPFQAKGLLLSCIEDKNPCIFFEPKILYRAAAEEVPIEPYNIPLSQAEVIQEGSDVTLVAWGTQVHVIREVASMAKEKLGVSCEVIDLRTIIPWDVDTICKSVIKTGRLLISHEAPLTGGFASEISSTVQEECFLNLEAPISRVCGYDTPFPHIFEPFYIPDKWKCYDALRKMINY
UniProt Q16611: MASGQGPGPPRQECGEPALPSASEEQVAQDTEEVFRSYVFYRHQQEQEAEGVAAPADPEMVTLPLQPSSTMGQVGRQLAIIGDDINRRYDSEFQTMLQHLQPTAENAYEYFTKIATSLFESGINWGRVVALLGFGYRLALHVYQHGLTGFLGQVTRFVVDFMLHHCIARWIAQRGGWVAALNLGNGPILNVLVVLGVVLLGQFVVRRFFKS
UniProt Q9NYM9: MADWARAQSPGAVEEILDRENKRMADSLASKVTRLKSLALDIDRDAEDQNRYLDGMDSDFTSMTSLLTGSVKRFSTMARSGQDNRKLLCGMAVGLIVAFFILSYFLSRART
UniProt Q6PJG6: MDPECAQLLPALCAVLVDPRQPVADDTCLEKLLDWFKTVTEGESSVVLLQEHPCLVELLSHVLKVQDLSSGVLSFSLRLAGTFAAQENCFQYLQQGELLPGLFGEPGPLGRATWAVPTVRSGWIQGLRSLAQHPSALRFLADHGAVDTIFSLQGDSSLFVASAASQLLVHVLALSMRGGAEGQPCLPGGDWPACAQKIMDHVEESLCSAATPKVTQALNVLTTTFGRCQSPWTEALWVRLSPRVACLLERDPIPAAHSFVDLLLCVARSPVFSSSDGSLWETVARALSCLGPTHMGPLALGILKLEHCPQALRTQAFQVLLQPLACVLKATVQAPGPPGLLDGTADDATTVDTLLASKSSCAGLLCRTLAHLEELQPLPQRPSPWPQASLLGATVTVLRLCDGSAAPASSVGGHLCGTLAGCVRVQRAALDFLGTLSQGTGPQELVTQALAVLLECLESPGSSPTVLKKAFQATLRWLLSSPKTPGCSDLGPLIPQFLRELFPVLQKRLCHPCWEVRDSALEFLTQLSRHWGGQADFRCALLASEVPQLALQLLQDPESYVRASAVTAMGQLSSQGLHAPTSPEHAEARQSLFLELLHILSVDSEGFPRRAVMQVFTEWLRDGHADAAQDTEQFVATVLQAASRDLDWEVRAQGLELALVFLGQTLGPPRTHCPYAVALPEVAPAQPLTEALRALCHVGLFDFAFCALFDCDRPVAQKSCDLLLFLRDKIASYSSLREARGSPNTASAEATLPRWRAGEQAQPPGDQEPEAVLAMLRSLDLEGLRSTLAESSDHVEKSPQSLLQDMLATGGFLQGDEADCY

log2 fold change, inactive:
ATXN2 (UniProt F8W0B5) 0.134, AVEN (UniProt Q9NQS1) 0.016, BAG4 (UniProt O95429) 0.042, BEX4 (UniProt Q9NWD9) -0.055, BOD1L1 (UniProt Q8NFC6) -0.006, BCKDHB (UniProt P21953) -0.017, BAK1 (UniProt Q16611) 0.043, BET1L (UniProt Q9NYM9) 0.089, BRAT1 (UniProt Q6PJG6) 0.034

— the supplement of paper PMC10849652
